Measured values reported in PubChem BioAssay AID540256 (National Center for Advancing Translational Sciences (NCATS), 2011).
Out of some 300,000 compounds screened, about 3,700 (1.2%) were called active. The shares of active, inactive and inconclusive entries below differ from those in the screen. Calls come from the whole dose curve; tested in HEK293 cells. A potency beside an inconclusive call is a rough fit, not a confirmed value.

Assay: qHTS for Inhibitors of binding or entry into cells for Lassa Virus; note: nearly all actives have a fitted effect of over 50% in size
Settings: Lassa virus pseudotype entry inhibition, cell reporter; series mostly up to 37.9 µM
Potency is the fitted concentration of half-maximal effect.

SMILES | Potency
COc1ccccc1NC(=O)CSc1ccc(-c2ccc(-n3ccnc3)cc2)nn1 | inactive
Cc1ccc(CSc2nnc(-c3ccncc3)n2N)cc1 | inactive
CC(C)CC(=O)Nc1ccc(S(=O)(=O)NCc2ccco2)cc1 | inconclusive: 20.6 µM [inhibitor, single point]
O=C(Nc1ccccc1)N1CC=C(c2ccc(F)cc2)CC1 | inactive
Nn1cnc2sc3c(c2c1=O)CCC3 | inactive
COc1cccc(OCC(O)CNC(=O)c2oc3ccc(C)cc3c2C)c1 (stereo not given) | inconclusive: 1.26 µM [inhibitor, single point]
COC(=O)[C@@H]1CCCN1C(=O)CCc1nnc(CCC2CCCCC2)o1 | inconclusive: 5.01 µM [activator, full curve]
Cc1ccc2c(c1)c1c3n2CCN(C(=O)CN2CCN(C)CC2)C3CCC1 (stereo not given) | inconclusive: 0.116 µM [activator, full curve]
CCC(CC)C(=O)Nc1nnc2n1CCS2 | inactive
C=CCOc1ccc(/C=C/C(=O)OCC(=O)NCCC2=CCCCC2)cc1 | inconclusive: 1.58 µM [inhibitor, full curve]
O=S(=O)(c1ccc(Br)c2nsnc12)N1CCOCC1 | inactive
NC(=S)COc1ccccc1 | inconclusive: 1.26 µM [inhibitor, single point]
COc1ccc(CCN2C(=O)c3[nH]nc(-c4ccccc4O)c3C2c2ccc(O)c(OC)c2)cc1 (stereo not given) | inconclusive: 7.08 µM [inhibitor, partial curve, poor fit]
O=C(O)CCc1ccc(-c2cccs2)n1CC1CCCO1 (stereo not given) | inactive
N#CC1CCCc2c1[nH]c1ccc([N+](=O)[O-])cc21 (stereo not given) | inconclusive: 11.2 µM [inhibitor, partial curve]
CC(O)CNCCOc1ccccc1-c1ccccc1 (stereo not given) | inconclusive: 0.501 µM [activator, single point]
O=C(NCc1cccs1)c1ccc(Cl)c(S(=O)(=O)N2CCCC2)c1 | inconclusive: 7.94 µM [inhibitor, partial curve, poor fit]
O=C(CCn1cnc(-c2ccccc2)c1-c1ccccc1)N/N=C/c1ccc(O)cc1 | inconclusive: 8.2 µM [inhibitor, partial curve]
CCN=C1NN=C(c2cc(C)n(CCc3ccccc3)c2C)CS1 | inconclusive: 3.16 µM [activator, full curve, poor fit]
CC1CC(C)CN(c2cc(N(C)CCO)c([N+](=O)[O-])c3nonc23)C1 (stereo not given) | inconclusive: 8.91 µM [inhibitor, partial curve, poor fit]
Cc1cccc(C)c1OCc1nc2c3cnn(-c4ccccc4Br)c3ncn2n1 | inconclusive: 35.5 µM [activator, single point]
CCOC(=O)Cn1c(=O)n(C2CCCCC2)c2nc(-c3ccccc3Cl)nc(C(N)=O)c21 | inactive
COc1ccc(Cl)cc1C=CC=NNC(=O)c1ccncc1 | inconclusive: 3.16 µM [inhibitor, partial curve, poor fit]
O=C(Cc1ccccc1)N/N=C/c1ccc2cccc(O)c2n1 | inconclusive: 31.6 µM [inhibitor, partial curve, poor fit]

SMILES | Potency
CC(C)(C)c1ccc(OCCCC(=O)Nc2ccc(S(N)(=O)=O)cc2)cc1 | inconclusive: 0.562 µM [inhibitor, full curve, poor fit]
COc1cc(C(=O)c2ccccc2)c(OC)cc1C(=O)Nc1ccc(O)cc1 | inconclusive: 2.82 µM [inhibitor, full curve]
C=CCn1c(SCc2ccc(C#N)cc2)nnc1-c1cccc(OC)c1 | inactive
CC(C)C(=O)Nc1cccc(-c2csc(-c3ccccc3)n2)c1 | inactive
CCOCCCNC(=O)c1c[nH]c2ccc(S(=O)(=O)Nc3cccc(Cl)c3C)cc2c1=O | inconclusive: 3.55 µM [inhibitor, full curve]
COc1ccc(C(=O)NCCC2=CCCCC2)cc1 | inconclusive: 7.08 µM [inhibitor, partial curve, poor fit]
Cc1ccccc1CNC(=O)c1ccccc1C(=O)O | inactive
O=C(CN(Cc1ccc(F)cc1)C(=O)c1csnn1)NCc1ccccc1 | inconclusive: 8.91 µM [inhibitor, partial curve]
Cc1ccc(S(=O)(=O)/C(=C/Cl)NC(=O)c2ccccc2)cc1 | active: 7.31 µM
O=c1c2ccccc2nc(SCc2nc3ccccc3s2)n1CCCO | inconclusive: 20 µM [inhibitor, single point]
CC(C)CSC1=NSC2=NC(=O)/C(=C\c3cccs3)C(=N)N12 | inconclusive: 6.31 µM [activator, single point]
Cc1ccc(NC(=O)COC(=O)c2nn(C)cc2Cl)cc1 | inactive
Fc1ccc(Nc2ncnc3c2nc2n3CCCC2)cc1 | inconclusive: 3.16 µM [activator, full curve]
Cc1c(NC(=O)c2ccccc2)cc(C(C)C)c(O)c1S(=O)(=O)c1ccc(Cl)cc1 | inactive
O=C(CCCN1C(=O)NC2(CCCC2)C1=O)Nc1ccc(Cl)c(S(=O)(=O)N2CCOCC2)c1 | inconclusive: 0.891 µM [inhibitor, full curve, poor fit]
O=C1CC(N2CCN(Cc3ccc(Cl)cc3)CC2)C(=O)N1CCc1ccccc1 (stereo not given) | inconclusive: 25.1 µM [inhibitor, partial curve, poor fit]
COc1ccc(C(=O)C[n+]2ccc3c(c2)nnn3-c2ccccc2)cc1 | inactive
COc1ccccc1CCN=C(N)NS(=O)(=O)c1ccc(C)c(C)c1 | inconclusive: 14.1 µM [inhibitor, partial curve, poor fit]
CC(=O)NC1=C(N(C)C2CCS(=O)(=O)C2)C(=O)c2ccccc2C1=O (stereo not given) | active: 7.08 µM
O=C(Nc1nccs1)c1ccc(F)c(S(=O)(=O)N2CCOCC2)c1 | inconclusive: 0.562 µM [inhibitor, single point]
COCCCNC(=O)C1CCCN(S(=O)(=O)c2ccc3c(c2)oc(=O)n3C)C1 (stereo not given) | inactive
CCc1c(C)nc2ccc(Br)cc2c1SCCC#N | inconclusive: 8.91 µM [inhibitor, partial curve, poor fit]
COc1ccc(N2CCCC2)c(NC(=O)COc2ccccc2)c1 | inactive
CCCc1cc(O)c2c(C)cc(=O)oc2c1 | inactive

SMILES | Potency
COc1ccc(C(=O)NC(=S)N2CCN(c3ccccc3O)CC2)cc1 | inconclusive: 3.16 µM [inhibitor, partial curve, poor fit]
COc1ccc(NC(=O)c2cccc(NC(=O)C(C)C)c2)c([N+](=O)[O-])c1 | inactive
CC(C)c1cc(C(=O)N2CCCC(Nc3ccc(F)cc3)C2)n[nH]1 (stereo not given) | inactive
O=C(Nc1ccc(OC(F)F)c(Cl)c1)[C@@H]1CCCN1C(=O)c1cccs1 | inconclusive: 12.6 µM [activator, single point]
COc1cccc(C(=O)Nc2nc3c(c(=O)[nH]2)CCCC3)c1 | inconclusive: 1.26 µM [activator, full curve, poor fit]
COc1ccc(-c2n[nH]c(=S)n2/N=C/C=C\c2ccccc2OC)cc1 | inconclusive: 1.58 µM [inhibitor, partial curve, poor fit]
COc1cccc2cc(C(=O)N3CCc4ccccc43)c(=O)oc12 | inactive
CN(c1ccccc1)C(c1ccc(F)cc1)c1nnnn1CC1CCCO1 (stereo not given) | inconclusive: 29.1 µM [activator, single point]
CCC(=O)N1c2ccccc2NC2=C(C(=O)CCC2)C1c1cccnc1 (stereo not given) | inconclusive: 4.11 µM [activator, partial curve, poor fit]
CCOC(=O)n1n[n+]([O-])c2ccccc21 | inactive
Cc1c(C(=O)OC/C(O)=C(\C#N)c2nc3ccccc3[nH]2)oc2ccccc12 | inconclusive: 35.5 µM [inhibitor, single point]
CSc1cccc(Nc2cc(C(=O)NCCCN(Cc3ccccc3)C(C)C)c3ccccc3n2)c1 | inconclusive: 11.2 µM [inhibitor, partial curve]
Cc1ccc(C(=O)Nc2ccc3c(c2)OCCO3)o1 | inconclusive: 16.4 µM [inhibitor, single point]
O=C1CC(NS(=O)(=O)c2ccc([N+](=O)[O-])cc2)CN1c1ccc2c(c1)OCCO2 (stereo not given) | inconclusive: 0.0891 µM [inhibitor, full curve, poor fit]
CCCCNC(=NCc1cccc(C(F)(F)F)c1)Nc1ccccc1 | inconclusive: 35.5 µM [inhibitor, single point]
O=C(CSc1nc(-c2ccccc2)c(-c2ccccc2)o1)N1CCOCC1 | inconclusive: 10 µM [inhibitor, partial curve, poor fit]
CCN(CC)S(=O)(=O)c1ccc(C)c(N=C=S)c1 | inconclusive: 35.5 µM [inhibitor, single point]
COc1ccc(OC)c(S(=O)(=O)NCCCc2ccccc2)c1 | inactive
COCc1c(C(=O)N/N=C\c2ccccn2)nnn1-c1nonc1N | inconclusive: 3.98 µM [inhibitor, partial curve, poor fit]
CC(C)(C)NC(=O)CN(Cc1ccco1)C(=O)CCC(=O)Nc1nccs1 | inconclusive: 6.31 µM [inhibitor, single point]
CCOc1ccc2nc3sc(C(=O)N4CCOCC4)c(N)c3cc2c1 | inconclusive: 25.1 µM [inhibitor, single point]
COc1ccc(-c2nn(-c3ccccc3)cc2/C=C2/SC(=S)N(CCCC(=O)O)C2=O)c(C)c1 | inconclusive: 8.91 µM [inhibitor, partial curve, poor fit]

Retrieved by structure from the list above (3):
SMILES | Potency
Cc1c(C(=O)OC/C(O)=C(\C#N)c2nc3ccccc3[nH]2)oc2ccccc12 | inconclusive: 35.5 µM [inhibitor, single point]
COc1ccc(C(=O)C[n+]2ccc3c(c2)nnn3-c2ccccc2)cc1 | inactive
Cc1ccc2c(c1)c1c3n2CCN(C(=O)CN2CCN(C)CC2)C3CCC1 (stereo not given) | inconclusive: 0.116 µM [activator, full curve]
